Reference: PubChem BioAssay AID686943 (Drosophila RNAi Screening Center, 2013)
The deposit covers about 23,000 reagents; below is a random part of those that have a named target and a result. 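Extra replicates exist only for a retested subset of genes; insulin dose and duration not given; both raised and lowered dpERK matter.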 Reagents against one gene are numbered here. A plus sign joins genes that one reagent is predicted to hit. Not all columns of the deposit are shown. Not given: the amount of reagent, the time to read-out.

Screen: 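Knockdowns that increase or decrease active ERK after insulin receptor stimulation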 (primary screen)
Cells: Drosophila S2R+ haemocyte-like cells expressing YFP-tagged ERK (Rolled)
Reagent: long dsRNA against Drosophila genes
Conditions: insulin stimulation versus unstimulated cells; dose and duration not given
Measured: 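Per-plate z-scores of phospho-ERK immunostaining normalised to YFP-tagged ERK, measured with and without insulin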
Scale: replicate 1, z-score of dpERK with insulin and replicate 2, z-score of dpERK with insulin: higher = more active ERK per ERK-YFP after insulin

gene knocked down | reagent no. | replicate 1, z-score of dpERK with insulin | replicate 2, z-score of dpERK with insulin
CG12078 (GeneID 38401) | 1 | 0.72 | 0.21
Tsf1 (GeneID 32821) | 1 | 0.18 | -0.47
Obp19a (GeneID 33037) | 1 | 0.41 | -0.19
CG10165 (GeneID 35242) | 1 | 0.02 | 0.08
CG13217 (GeneID 36180) | 1 | 0.07 | 1.29
C15 (GeneID 42544) | 1 | -0.58 | -0.26
C15 (GeneID 42544) | 2 | -0.45 | -0.01
salto (GeneID 36332) | 1 | 0.06 | 0.2
Fhos (GeneID 39004) | 1 | -0.06 | -0.37
Fhos (GeneID 39004) | 2 | 0.65 | 0.56
Fhos (GeneID 39004) | 3 | 0.7 | 0.06
Fhos (GeneID 39004) | 4 | 0.71 | -0.04
Hira (GeneID 31680) | 1 | 0.26 | 0
GILT1 (GeneID 41650) | 1 | 0.46 | 0.46
CG32512 (GeneID 33085) | 1 | 0.78 | 0.69
CG32512 (GeneID 33085) | 2 | 0.52 | 1.07
CG32512 (GeneID 33085) | 3 | -1.44 | 0.06
Myo31DF (GeneID 34445) | 1 | 0.54 | -0.28
Myo31DF (GeneID 34445) | 2 | 0.57 | 0.26
Sirt2 (GeneID 42414) | 1 | 0.74 | 0.6
AdoR (GeneID 43583) | 1 | -1.33 | 4.74
CG8547 (GeneID 36586) | 1 | 0.46 | -0.01
CG12219 (GeneID 31572) | 1 | 0.98 | 0.82
snoRNA:Me28S-C3227a + snoRNA:Me18S-A1061 + snoRNA:Me28S-C3227b + 7 more | 1 | 0.44 | 3.33
CG32106 (GeneID 317855) | 1 | 0.31 | 0.48
CG11444 (GeneID 31388) | 1 | 0.72 | 1.46
CG11699 (GeneID 32101) | 1 | 0.58 | 0.45
abd-A (GeneID 42037) | 1 | -0.64 | -3.27
abd-A (GeneID 42037) | 2 | -1.49 | -3.14
l(2)37Cb (GeneID 35192) | 1 | 0.53 | 0.16
tra2 (GeneID 36619) | 1 | 0.5 | 0.12
CG13193 (GeneID 36256) | 1 | 0.52 | 0.91
CG4872 (GeneID 32676) | 1 | 0.07 | -0.06
Sytalpha (GeneID 35068) | 1 | 0.04 | 0.38
SC35 (GeneID 53444) | 1 | -1.94 | -1.56
SC35 (GeneID 53444) | 2 | 0.17 | -0.31
CG15912 (GeneID 31385) | 1 | -0.12 | -0.45
bs (GeneID 37890) | 1 | -5.25 | 0.4
pps (GeneID 41524) | 1 | 0.16 | -0.5
